# Cell number after 72 h of treatment

Source: doi:10.1371/journal.pone.0140310, primary screening data, rounded.

Drug key:
sunitinib (2000 nM): CCN(CC)CCNC(=O)c1c(C)[nH]c(/C=C2\C(=O)Nc3ccc(F)cc32)c1C
tozasertib (30 nM): Cc1cc(Nc2cc(N3CCN(C)CC3)nc(Sc3ccc(NC(=O)C4CC4)cc3)n2)n[nH]1
BI-D1870 (1000 nM): CC(C)CCN1c2nc(Nc3cc(F)c(O)c(F)c3)ncc2N(C)C(=O)C1C (stereo unspecified)
RKI-983 (2000 nM): C[C@@H](N)c1ccc(C(=O)Nc2ccnc3[nH]ccc23)cc1
gemcitabine (2 nM): Nc1ccn([C@@H]2O[C@H](CO)[C@@H](O)C2(F)F)c(=O)n1
bortezomib (5 nM): CC(C)C[C@H](NC(=O)[C@H](Cc1ccccc1)NC(=O)c1cnccn1)B(O)O
AZD7762 (100 nM): NC(=O)Nc1cc(-c2cccc(F)c2)sc1C(=O)N[C@H]1CCCNC1
perifosine (2000 nM): CCCCCCCCCCCCCCCCCCOP(=O)([O-])OC1CC[N+](C)(C)CC1
stibogluconate (10000 nM): O=C(O)[C@@H]1[O][Sb](=[O])([O][Sb]2(=[O])[O][C@H]([C@H](O)CO)[C@H](O)[C@H](C(=O)O)[O]2)[O][C@H]([C@H](O)CO)[C@@H]1O (stereo partly specified)
ruxolitinib (5000 nM): N#CC[C@H](C1CCCC1)n1cc(-c2ncnc3[nH]ccc23)cn1
TCS401 (8330 nM): O=C(O)C(=O)Nc1sc2c(c1C(=O)O)CCNC2
indole-3-carbinol (4000 nM): OCc1c[nH]c2ccccc12
Src-I1 (10000 nM): COc1cc2ncnc(Nc3ccc(Oc4ccccc4)cc3)c2cc1OC
dorsomorphin (2000 nM): c1cc(-c2cnn3cc(-c4ccc(OCCN5CCCCC5)cc4)cnc23)ccn1
docetaxel (0.5 nM): CC(=O)O[C@@]12CO[C@@H]1C[C@H](O)[C@@]1(C)C(=O)[C@H](O)C3=C(C)[C@@H](OC(=O)[C@H](O)[C@@H](NC(=O)OC(C)(C)C)c4ccccc4)C[C@@](O)([C@@H](OC(=O)c4ccccc4)[C@H]21)C3(C)C
ENMD-2076 (200 nM): Cc1cc(Nc2cc(N3CCN(C)CC3)nc(/C=C/c3ccccc3)n2)n[nH]1

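Human melanoma cells were exposed to a pair of drugs for 72 h in 1,536-well plates and read by automated microscopy after fixing and staining. Each value is the count of nuclei relative to DMSO-treated wells, in %, so that 100 equals the control. Concentrations were fixed for each drug; these are the higher of two levels. The file gives one value for each pair and line, without errors, so small differences may be noise.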 This is part of the screen, not chosen by result.

Drugs	WM451Lu	WM3619
AZD7762 + gemcitabine	23.2	14.1
docetaxel + indole-3-carbinol	36.8	60.2
RKI-983 + sunitinib	53.9	56.5
gemcitabine + sunitinib	49.8	39.2
docetaxel + dorsomorphin	36.8	41.5
sunitinib + tozasertib	57.5	76.1
Src-I1 + RKI-983	78.3	61.4
bortezomib + stibogluconate	18.8	2.9
RKI-983 + AZD7762	57.4	22.7
TCS401 + gemcitabine	40.8	47.9
tozasertib + docetaxel	32.6	84.2
indole-3-carbinol + gemcitabine	47.5	47.6
RKI-983 + perifosine	73.6	88.3
ruxolitinib + gemcitabine	45.0	55.0
tozasertib + dorsomorphin	70.1	60.4
stibogluconate + docetaxel	28.7	39.3
ENMD-2076 + perifosine	75.5	83.2
Src-I1 + perifosine	86.4	99.9
tozasertib + Src-I1	72.2	69.0
docetaxel + ruxolitinib	31.3	64.5
ENMD-2076 + docetaxel	35.9	84.2
perifosine + TCS401	102	82.3
TCS401 + tozasertib	78.1	89.6
stibogluconate + RKI-983	67.0	93.3
bortezomib + BI-D1870	22.7	4.4
ruxolitinib + TCS401	77.1	62.0
bortezomib + TCS401	38.1	3.3
AZD7762 + indole-3-carbinol	90.3	18.0
stibogluconate + ENMD-2076	78.5	78.3
gemcitabine + dorsomorphin	64.2	32.1
dorsomorphin + RKI-983	68.2	137
tozasertib + perifosine	86.2	105
indole-3-carbinol + stibogluconate	76.6	122
dorsomorphin + perifosine	73.2	74.2

The first 3 entries again:

* AZD7762 + gemcitabine | WM451Lu: 23.2; WM3619: 14.1
* docetaxel + indole-3-carbinol | WM451Lu: 36.8; WM3619: 60.2
* RKI-983 + sunitinib | WM451Lu: 53.9; WM3619: 56.5